Results on 2 molecules are retold here after paper PMC5529009.

Sequences of proteins named here, by UniProt entry; tags and fusion partners are left off.
UniProt Q9C9K7: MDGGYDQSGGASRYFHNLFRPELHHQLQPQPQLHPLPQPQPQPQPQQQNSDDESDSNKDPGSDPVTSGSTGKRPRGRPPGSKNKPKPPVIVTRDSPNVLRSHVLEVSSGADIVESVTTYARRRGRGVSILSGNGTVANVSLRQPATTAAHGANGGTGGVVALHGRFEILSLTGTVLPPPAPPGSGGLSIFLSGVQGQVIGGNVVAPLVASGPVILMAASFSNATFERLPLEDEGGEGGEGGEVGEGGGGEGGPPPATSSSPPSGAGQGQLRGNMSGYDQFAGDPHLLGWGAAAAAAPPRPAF
UniProt Q9S7C9: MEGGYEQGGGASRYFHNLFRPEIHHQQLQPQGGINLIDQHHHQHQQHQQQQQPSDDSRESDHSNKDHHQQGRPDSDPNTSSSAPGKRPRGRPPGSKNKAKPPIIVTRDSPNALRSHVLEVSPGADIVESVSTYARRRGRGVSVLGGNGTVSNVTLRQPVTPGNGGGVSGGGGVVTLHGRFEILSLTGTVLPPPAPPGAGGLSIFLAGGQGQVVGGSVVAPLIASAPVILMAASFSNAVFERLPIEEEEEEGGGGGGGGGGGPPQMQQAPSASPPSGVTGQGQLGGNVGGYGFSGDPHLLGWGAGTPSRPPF

No constants are given. Whether binding was seen depends on the method and setting. For some of these results: In cells and extracts the contact can be indirect. Some results given as binding are weak or reduced against the parent protein; the word gives no strength. Where a sequence is shown, tags or fusion partners need not be part of it.

For assay [1], the target named is SUPPRESSOR OF PHYTOCHROME B-4 #3 (SOB3)/AHL29, GAL4 fusion for yeast two-hybrid (Arabidopsis thaliana) (UniProt Q9C9K7). Put plainly: two-hybrid; BD Matchmaker system; pGBKT7 (GAL4 BD) and pGADT7 (GAL4 AD) fusions co-transformed into yeast strain pJG69-4a; growth on selective medium (-LWHA) or b-Gal activity with ONPG.
Assay [2] deals with ESCAROLA (ESC)/AHL27, GAL4 fusion for yeast two-hybrid (Arabidopsis thaliana) (UniProt Q9S7C9). Described as above.
For assay [3], the target named is SUPPRESSOR OF PHYTOCHROME B-4 #3 (SOB3)/AHL29, GAL4 fusion for yeast two-hybrid (Arabidopsis thaliana) (UniProt Q9C9K7). The assay can be described thus: two-hybrid; screen of SOB3 against a prey library composed only of approximately 100 cDNAs encoding chromatin remodelers and chromatin modifiers in Arabidopsis.
The target in assay [4] is SOB3-nYFP (Arabidopsis thaliana) (UniProt Q9C9K7). Put plainly: split reporter; BiFC; nYFP and cYFP fusions transiently coexpressed in Arabidopsis protoplasts; YFP fluorescence by confocal microscopy.

B1: ACTIN-RELATED PROTEIN 4 (ARP4), GAL4 fusion for yeast two-hybrid (protein, UniProt Q84M92 1-441)
chain: MYGGDEVSAIVVDLGSHTCKAGYAGEDAPKAVFPSVIGAVDGVEAMDVDVDSTKTNSNSEDSKTESEKEKSKRKLYVGSQAMSYRRDHMEVLSPIKDGIVSDWDLVDNIWEHAFKSCLMIDPTEHPMLLAEPPLNTQQQREKAAELMFEKYKVPALFMAKNPVLTSFATGRATSLVVDCGGGSTTISPVHDGYVLQKAVVSSPLGGEFLTDCLLKSLESKGIKIRPRYSFKRKEVRAGEFQVEDVDIPDTTESYKLFCQRMIVGDIKDSICRVPDTPYDDKSYSNIPTTSYELPDGQTLEIGADRFKVPDVMFNPSIVQTIPGMEKYAEMIPSVRGLPHMVMESINKCDVDIRRELYSSILLAGGTSSMQQLKERLEKDLIEESPHSARVKVLASGNTTERRFSVWIGGSILASLGSFQQMWFSKSEYEEHGASYIQRKCP
As for B1, the results for the binding result in assay [1], in assay [2] and in assay [3] were “binds”, “no binding” and “binds”, respectively.

B2: ARP4-cYFP (protein, UniProt Q84M92 1-441)
chain: B1 chain
Turning to B2, the binding result in assay [4] is “binds”.
